Our source for the binding values is paper PMC5523156.

By UniProt entry, the sequences of proteins in these tests, tags left out. Residues count along the entry.
UniProt P14780, residues 107-707: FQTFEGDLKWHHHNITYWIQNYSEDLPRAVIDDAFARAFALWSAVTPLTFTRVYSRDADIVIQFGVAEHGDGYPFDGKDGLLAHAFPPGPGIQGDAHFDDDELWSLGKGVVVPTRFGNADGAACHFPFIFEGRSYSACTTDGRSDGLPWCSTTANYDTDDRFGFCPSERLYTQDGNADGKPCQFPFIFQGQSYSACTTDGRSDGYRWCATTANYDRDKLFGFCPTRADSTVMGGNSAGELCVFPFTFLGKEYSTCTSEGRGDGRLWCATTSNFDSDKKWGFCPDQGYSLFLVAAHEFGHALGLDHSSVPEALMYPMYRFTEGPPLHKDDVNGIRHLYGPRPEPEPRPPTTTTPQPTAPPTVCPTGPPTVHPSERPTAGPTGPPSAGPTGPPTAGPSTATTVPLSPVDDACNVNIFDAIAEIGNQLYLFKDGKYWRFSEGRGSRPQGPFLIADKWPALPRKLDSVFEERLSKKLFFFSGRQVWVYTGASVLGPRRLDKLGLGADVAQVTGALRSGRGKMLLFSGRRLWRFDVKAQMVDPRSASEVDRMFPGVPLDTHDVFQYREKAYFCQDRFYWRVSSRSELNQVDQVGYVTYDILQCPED
UniProt P01033, residues 24-207: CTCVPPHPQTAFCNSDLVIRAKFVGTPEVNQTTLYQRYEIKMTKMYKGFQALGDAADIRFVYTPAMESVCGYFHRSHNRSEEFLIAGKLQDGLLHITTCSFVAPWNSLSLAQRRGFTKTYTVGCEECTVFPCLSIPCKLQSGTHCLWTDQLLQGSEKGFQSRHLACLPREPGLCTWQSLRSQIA

The assay addresses endogenous/native MMP-9 in human plasma (human (endogenous in plasma)) (UniProt P14780). Put plainly: AlphaScreen or HTRF; AlphaLISA no-wash sandwich immunoassay on 5 uL human plasma plus 5 uL assay buffer; anti-MMP-9 acceptor beads and biotinylated anti-TIMP-1 antibody with streptavidin donor beads, room temperature; plasma of normoalbuminuric (n = 16) and albuminuric (n = 20) hypertensive …; also tested with H2O2; semi-quantitative.

Results are given in words; binding and its absence hold for the method and conditions named. Some binding calls cover weakened binding; strength is not graded here.

Consider “endogenous/native TIMP-1 in human plasma (from UniProt P01033 24-207)”, for which the binding entry was “binds”.
